# Record: PubChem BioAssay AID1224830 (NIAID, 2016)
# Assay: 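Host factors that control LPS-induced TNF expression in human macrophages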 (primary screen)
# Cell system: human THP-1 monocytic leukaemia cells, TNF dual-luciferase reporter clone, PMA-differentiated to macrophage-like cells
# Reagent: siRNA pool against human genes, 50 nM
# Duration: LPS for 4 h, given about 3 days after siRNA transfection
# Conditions: bacterial LPS (TLR4 ligand), 10 ng/ml
# Read-out: 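TNF firefly reporter luminescence divided by renilla, normalised to the plate median, then turned into a robust z-score for each replicate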
# Scale: TNF reporter robust z-score: higher = stronger TNF reporter response to LPS
# Call rule: 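Each well counts as active if its z-score is over 2.8 or under -1.5; controls are left without a call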
# In all, the deposit lists about 18,000 reagents; this is a random part of them. About 2,900 of them (16%) count as active. 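Calls are made per well; low scores hint the gene aids the LPS response, high scores that it dampens it.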 The numbers tell different reagents against one gene apart. Repeated entries: four replicate wells of each siRNA pool. No sequences are given here.
gene,pool no.,TNF reporter robust z-score,Outcome
TCL1B (TCL1 family AKT coactivator B),1,-1.21,inactive
TCL1B (TCL1 family AKT coactivator B),1,0.26,inactive
TCL1B (TCL1 family AKT coactivator B),1,-0.61,inactive
TCL1B (TCL1 family AKT coactivator B),1,0.08,inactive
FAM163A (family with sequence similarity 163 member A),1,0.04,inactive
FAM163A (family with sequence similarity 163 member A),1,1.05,inactive
FAM163A (family with sequence similarity 163 member A),1,0.4,inactive
FAM163A (family with sequence similarity 163 member A),1,2.62,inactive
PER3 (period circadian regulator 3),1,0.15,inactive
PER3 (period circadian regulator 3),1,0.73,inactive
PER3 (period circadian regulator 3),1,1.38,inactive
PER3 (period circadian regulator 3),1,1.94,inactive
"SPG7 (SPG7 matrix AAA peptidase subunit, paraplegin)",1,0.48,inactive
"SPG7 (SPG7 matrix AAA peptidase subunit, paraplegin)",1,-0.22,inactive
"SPG7 (SPG7 matrix AAA peptidase subunit, paraplegin)",1,0.29,inactive
"SPG7 (SPG7 matrix AAA peptidase subunit, paraplegin)",1,-0.42,inactive
"PPM1D (protein phosphatase, Mg2+/Mn2+ dependent 1D)",1,0.63,inactive
"PPM1D (protein phosphatase, Mg2+/Mn2+ dependent 1D)",1,-0.6,inactive
"PPM1D (protein phosphatase, Mg2+/Mn2+ dependent 1D)",1,-0.55,inactive
"PPM1D (protein phosphatase, Mg2+/Mn2+ dependent 1D)",1,-0.43,inactive
LHFPL5 (LHFPL tetraspan subfamily member 5),1,-0.08,inactive
LHFPL5 (LHFPL tetraspan subfamily member 5),1,0.73,inactive
LHFPL5 (LHFPL tetraspan subfamily member 5),1,-0.11,inactive
LHFPL5 (LHFPL tetraspan subfamily member 5),1,0.95,inactive
YTHDC1 (YTH N6-methyladenosine RNA binding protein C1),1,2.36,inactive
YTHDC1 (YTH N6-methyladenosine RNA binding protein C1),1,1.12,inactive
YTHDC1 (YTH N6-methyladenosine RNA binding protein C1),1,2.32,inactive
YTHDC1 (YTH N6-methyladenosine RNA binding protein C1),1,2.24,inactive
MAGEL2 (MAGE family member L2),1,-1.72,active
MAGEL2 (MAGE family member L2),1,-1.78,active
MAGEL2 (MAGE family member L2),1,-0.64,inactive
MAGEL2 (MAGE family member L2),1,-1.87,active
MC5R (melanocortin 5 receptor),1,-0.51,inactive
MC5R (melanocortin 5 receptor),1,0.3,inactive
MC5R (melanocortin 5 receptor),1,-0.48,inactive
MC5R (melanocortin 5 receptor),1,-0.28,inactive
ZDHHC19 (zDHHC palmitoyltransferase 19),1,1.19,inactive
ZDHHC19 (zDHHC palmitoyltransferase 19),1,0.73,inactive
ZDHHC19 (zDHHC palmitoyltransferase 19),1,0.39,inactive
ZDHHC19 (zDHHC palmitoyltransferase 19),1,1.63,inactive
TCEAL7 (transcription elongation factor A like 7),1,0.6,inactive
TCEAL7 (transcription elongation factor A like 7),1,0.52,inactive
TCEAL7 (transcription elongation factor A like 7),1,-0.23,inactive
TCEAL7 (transcription elongation factor A like 7),1,-1.3,inactive
ITFG2 (integrin alpha FG-GAP repeat containing 2),1,1.4,inactive
ITFG2 (integrin alpha FG-GAP repeat containing 2),1,-0.08,inactive
ITFG2 (integrin alpha FG-GAP repeat containing 2),1,-0.43,inactive
ITFG2 (integrin alpha FG-GAP repeat containing 2),1,-0.58,inactive
PARG (poly(ADP-ribose) glycohydrolase),1,-0.2,inactive
PARG (poly(ADP-ribose) glycohydrolase),1,-0.28,inactive
PARG (poly(ADP-ribose) glycohydrolase),1,-1.07,inactive
PARG (poly(ADP-ribose) glycohydrolase),1,1.18,inactive
TEDC1 (tubulin epsilon and delta complex 1),1,0.66,inactive
TEDC1 (tubulin epsilon and delta complex 1),1,2.29,inactive
TEDC1 (tubulin epsilon and delta complex 1),1,-0.11,inactive
TEDC1 (tubulin epsilon and delta complex 1),1,1.17,inactive
ZP1 (zona pellucida glycoprotein 1),1,0.64,inactive
ZP1 (zona pellucida glycoprotein 1),1,4,active
ZP1 (zona pellucida glycoprotein 1),1,0.88,inactive
ZP1 (zona pellucida glycoprotein 1),1,2.22,inactive
MGAT3,1,-0.71,inactive
MGAT3,1,-0.7,inactive
MGAT3,1,-1.2,inactive
MGAT3,1,0.14,inactive
SLC35F2,1,-1.58,active
SLC35F2,1,-0.29,inactive
SLC35F2,1,-0.9,inactive
SLC35F2,1,-1.1,inactive
STOX1 (storkhead box 1),1,4.13,active
STOX1 (storkhead box 1),1,3.76,active
STOX1 (storkhead box 1),1,3.92,active
STOX1 (storkhead box 1),1,-0.07,inactive
CCDC82 (coiled-coil domain containing 82),1,-1.04,inactive
CCDC82 (coiled-coil domain containing 82),1,-1.31,inactive
CCDC82 (coiled-coil domain containing 82),1,-0.23,inactive
CCDC82 (coiled-coil domain containing 82),1,-0.58,inactive
MGME1 (mitochondrial genome maintenance exonuclease 1),1,0.55,inactive
MGME1 (mitochondrial genome maintenance exonuclease 1),1,1.83,inactive
MGME1 (mitochondrial genome maintenance exonuclease 1),1,0.12,inactive
MGME1 (mitochondrial genome maintenance exonuclease 1),1,0.9,inactive
SLC4A1AP,1,-0.73,inactive
SLC4A1AP,1,-1.21,inactive
SLC4A1AP,1,-1.06,inactive
SLC4A1AP,1,0.32,inactive
IGFN1,1,0.38,inactive
IGFN1,1,0.98,inactive
IGFN1,1,0.82,inactive
IGFN1,1,1.42,inactive
PLRG1 (pleiotropic regulator 1),1,-1.15,inactive
PLRG1 (pleiotropic regulator 1),1,-0.51,inactive
PLRG1 (pleiotropic regulator 1),1,-1.16,inactive
PLRG1 (pleiotropic regulator 1),1,-0.87,inactive
CD4 (CD4 molecule),1,-0.48,inactive
CD4 (CD4 molecule),1,0.16,inactive
CD4 (CD4 molecule),1,-0.15,inactive
CD4 (CD4 molecule),1,0.07,inactive
"SUPT20H (SPT20 homolog, SAGA complex component)",1,1.54,inactive
"SUPT20H (SPT20 homolog, SAGA complex component)",1,2.97,active
"SUPT20H (SPT20 homolog, SAGA complex component)",1,0.58,inactive
"SUPT20H (SPT20 homolog, SAGA complex component)",1,1.3,inactive
SNAP25 (synaptosome associated protein 25),1,0.44,inactive
SNAP25 (synaptosome associated protein 25),1,0.81,inactive
SNAP25 (synaptosome associated protein 25),1,1.82,inactive
S1PR3 (sphingosine-1-phosphate receptor 3),1,0.55,inactive
S1PR3 (sphingosine-1-phosphate receptor 3),1,0.53,inactive
S1PR3 (sphingosine-1-phosphate receptor 3),1,0.66,inactive
S1PR3 (sphingosine-1-phosphate receptor 3),1,0.7,inactive
S1PR3 (sphingosine-1-phosphate receptor 3),2,-0.26,inactive
S1PR3 (sphingosine-1-phosphate receptor 3),2,-0.08,inactive
S1PR3 (sphingosine-1-phosphate receptor 3),2,-0.15,inactive
S1PR3 (sphingosine-1-phosphate receptor 3),2,0.6,inactive

10 of these entries, reformatted:
gene	pool no.	TNF reporter robust z-score	Outcome
TCEAL7 (transcription elongation factor A like 7)	1	0.52	inactive
TCEAL7 (transcription elongation factor A like 7)	1	-0.23	inactive
TCEAL7 (transcription elongation factor A like 7)	1	-1.3	inactive
ITFG2 (integrin alpha FG-GAP repeat containing 2)	1	1.4	inactive
ITFG2 (integrin alpha FG-GAP repeat containing 2)	1	-0.08	inactive
ITFG2 (integrin alpha FG-GAP repeat containing 2)	1	-0.43	inactive
ITFG2 (integrin alpha FG-GAP repeat containing 2)	1	-0.58	inactive
PARG (poly(ADP-ribose) glycohydrolase)	1	-0.2	inactive
PARG (poly(ADP-ribose) glycohydrolase)	1	-0.28	inactive
PARG (poly(ADP-ribose) glycohydrolase)	1	-1.07	inactive
